Experimental findings from patent US20090075291A1, “PEPTIDE-BASED REGULATION OF GAP JUNCTIONS” (The Research Foundation of State University of New York, priority 2006, published 2009) are described below.

Amino acid sequences for entries named in this document (tags omitted). A change or cut given only in a name is not applied to a line headed by its entry. Chains listed by the source or under a name are the forms on record and can include a tag or linker. Residues count along the entry.
Cx43 from rat heart lysate (P08050, residues 2-382): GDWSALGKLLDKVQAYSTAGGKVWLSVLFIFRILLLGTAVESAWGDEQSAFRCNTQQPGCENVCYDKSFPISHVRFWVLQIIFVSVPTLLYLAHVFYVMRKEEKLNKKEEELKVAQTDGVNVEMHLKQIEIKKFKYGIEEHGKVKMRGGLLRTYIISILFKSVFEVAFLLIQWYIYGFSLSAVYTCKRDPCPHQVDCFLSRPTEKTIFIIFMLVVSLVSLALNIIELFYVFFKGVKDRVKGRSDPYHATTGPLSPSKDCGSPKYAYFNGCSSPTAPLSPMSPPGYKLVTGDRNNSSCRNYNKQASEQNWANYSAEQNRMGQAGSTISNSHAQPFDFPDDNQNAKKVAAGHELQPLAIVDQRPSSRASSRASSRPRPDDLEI
Recombinant Cx43CT (carboxyl terminal domain of rat connexin43, residues 255-382, preceded by GPLG) (P08050, form named): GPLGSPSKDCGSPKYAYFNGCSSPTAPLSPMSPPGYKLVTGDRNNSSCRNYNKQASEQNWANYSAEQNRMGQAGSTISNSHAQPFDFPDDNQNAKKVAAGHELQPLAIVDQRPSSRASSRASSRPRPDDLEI

Results are given in words; binding and its absence hold for the method and conditions named. For some assays here: In cells and extracts the contact can be indirect. Some entries that bind do so weakly or less than the wild type. For some assays here: Where a sequence is shown, tags or fusion partners need not be part of it.

Assay [1] concerns the target Cx43 from rat heart lysate (rat) (UniProt P08050). Nature of the assay: GST pulldown from rat heart lysate on glutathione beads, western blot with anti-Cx43 antibody. (In general: Immunoblotting shows a protein as a band on a membrane.)
Assay [2] shares this target. Nature of the assay: GST pulldown from rat heart lysate, western blot for Cx43.
Assay [3] shares this target. Nature of the assay: Cx43 pulldown assay, percent binding relative to RXPE; Example 19 does not state the source of Cx43.
Assay [4] has as its target Recombinant Cx43CT (carboxyl terminal domain of rat connexin43, residues 255-382, preceded by GPLG) (rat) (UniProt P08050). Nature of the assay: SPR sensorgram, peptide 250 µM.
Assay [5] has the same target. As to the kind of experiment: SPR, Cx43CT immobilized, peptide 250 µM and higher. (SPR reads the build-up and loss of mass on a sensor chip optically.)
The target is the same in assay [6]. Nature of the assay: SPR, Cx43CT immobilised, peptide 250 µM, pH 7.5 printed on the sheet.

B1: GST-RXPE (glutathione S-transferase fused to RXPE) (peptide, not shown: a dimerising Fc or GST)
chain: SDDLRSPQLHNGGGSAVPFYSHSHMVRRKPRNPR
Turning to B1, the binding entry in assay [1] and in assay [2] was “binds” throughout.

B2: 27 (peptide)
peptide: SDDLRSPQLHNGGGSAVPFYSHSHMVRRKAANPR
With B2, in assay [3], the binding entry is recorded as “binds”.

B3: 25 (peptide)
peptide: SDDLRSPQLHNGGGSAVPFYSHSHMVRAKARNPR
As for B3, the binding result in assay [3] is “binds”.

B4: RXP-E (peptide)
peptide: SDDLRSPQLHNGGGSAVPFYSHSHMVRRKPRNPR
For B4, in assay [3], the binding result was “binds”.

B5: RXP4 (peptide)
peptide: RRPPYRVPPKLF
For the molecule B5, the binding result in assay [4], in assay [5] and in assay [6] was “binds” in each case.

B6: GST-NL.RXPE (glutathione S-transferase fused to NL.RXPE) (peptide, not shown: a dimerising Fc or GST)
chain: SDDLRSPQLHNHMVRRKPRNPR
Consider B6, for which the binding result in assay [1], in assay [2] and in assay [3] was “binds” each time.
